Laboratory results: article PMC5857993
No constants are given. Whether binding was seen depends on the method and setting. For some of these results: In cells and extracts the contact can be indirect. Some binding calls cover weakened binding; strength is not graded here. Each block holds one substance with its values, some of them ahead of it.

Amino acid sequences for entries named in this document (tags omitted).
UniProt O14733: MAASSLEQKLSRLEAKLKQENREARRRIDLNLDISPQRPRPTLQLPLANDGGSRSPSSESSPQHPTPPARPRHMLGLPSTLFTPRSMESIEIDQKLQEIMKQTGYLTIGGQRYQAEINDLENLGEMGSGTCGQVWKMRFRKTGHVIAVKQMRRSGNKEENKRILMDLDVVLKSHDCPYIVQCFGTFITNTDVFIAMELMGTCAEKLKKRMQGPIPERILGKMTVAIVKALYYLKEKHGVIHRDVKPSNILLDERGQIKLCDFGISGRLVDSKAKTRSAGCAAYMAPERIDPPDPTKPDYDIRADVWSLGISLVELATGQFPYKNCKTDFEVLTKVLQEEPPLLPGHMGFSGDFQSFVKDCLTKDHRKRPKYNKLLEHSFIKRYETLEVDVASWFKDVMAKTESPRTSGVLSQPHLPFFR
UniProt Q9H4L4: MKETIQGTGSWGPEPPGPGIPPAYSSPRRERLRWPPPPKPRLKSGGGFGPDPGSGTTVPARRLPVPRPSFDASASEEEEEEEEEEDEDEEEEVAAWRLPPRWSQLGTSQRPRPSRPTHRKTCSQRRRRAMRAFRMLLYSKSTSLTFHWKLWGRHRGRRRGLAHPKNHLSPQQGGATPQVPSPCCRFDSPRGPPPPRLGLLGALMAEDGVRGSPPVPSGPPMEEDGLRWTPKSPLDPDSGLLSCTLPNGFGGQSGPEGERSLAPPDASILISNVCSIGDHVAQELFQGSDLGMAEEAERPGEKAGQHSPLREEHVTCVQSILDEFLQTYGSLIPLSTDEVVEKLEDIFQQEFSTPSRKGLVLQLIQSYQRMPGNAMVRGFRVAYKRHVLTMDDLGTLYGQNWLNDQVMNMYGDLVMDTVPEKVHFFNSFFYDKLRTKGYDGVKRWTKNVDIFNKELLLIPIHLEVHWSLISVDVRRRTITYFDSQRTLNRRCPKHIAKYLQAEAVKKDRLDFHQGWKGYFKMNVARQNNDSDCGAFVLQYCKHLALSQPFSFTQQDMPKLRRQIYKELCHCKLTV
UniProt P45983: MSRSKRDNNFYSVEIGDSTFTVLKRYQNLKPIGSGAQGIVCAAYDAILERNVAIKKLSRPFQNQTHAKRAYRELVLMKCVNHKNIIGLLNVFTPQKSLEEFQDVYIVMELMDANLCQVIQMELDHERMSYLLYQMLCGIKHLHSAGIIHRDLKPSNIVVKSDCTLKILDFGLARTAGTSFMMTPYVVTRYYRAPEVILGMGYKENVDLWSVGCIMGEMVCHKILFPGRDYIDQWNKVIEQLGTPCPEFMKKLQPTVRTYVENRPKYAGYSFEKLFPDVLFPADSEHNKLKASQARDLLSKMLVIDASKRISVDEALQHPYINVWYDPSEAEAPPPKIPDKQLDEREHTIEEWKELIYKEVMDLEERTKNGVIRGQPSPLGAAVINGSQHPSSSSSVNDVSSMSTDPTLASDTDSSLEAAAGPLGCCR

How the values were obtained:
FLAG–MKK7 = FLAG–MKK7 (UniProt O14733); assay: co-IP; HEK293T cells co-transfected for 48 h; FLAG-M2 beads for immunoprecipitation, immunoblot with anti-MKK7 or anti-GFP; lysis buffer 50 mM Tris-HCl pH 7.4, 150 mM NaCl, 1 mM EDTA, 1% Triton X-100; overnight at 4 °C
FLAG–SENP3 = FLAG–SENP3 (UniProt Q9H4L4); assay: as above
[1] = target: endogenous MKK7 (human (endogenous in TLR4 HEK293)) (UniProt O14733); assay: co-IP; endogenous proteins in TLR4 293 cells, with or without LPS (100 ng/ml) for 30 min; RIPA buffer, specific antibodies and Protein A/G-agarose beads, 4 °C
GST–MKK7 = GST–MKK7 (UniProt O14733); assay: pull-down; GST–MKK7 or GST–MKK7–SUMO3 on glutathione-Sepharose incubated with 1 μg JNK1 overnight at 4 °C; 50 mM Tris pH 7.4, 150 mM NaCl, 1 mM EDTA, 1% Triton X-100; JNK1 detected by immunoblot; both purified

- binding (FLAG–MKK7): binds
Substance: GFP–SENP3 (from UniProt Q9H4L4 1-574) (enzyme)

- binding (FLAG–SENP3): binds
Substance: MKK7 (from plasmid pCDNA–MKK7) (from UniProt O14733 1-419) (enzyme)

- binding [1]: binds
Substance: endogenous SENP3 (from UniProt Q9H4L4 1-574) (enzyme)

- binding (GST–MKK7): binds
Substance: unactivated recombinant human JNK1 (from UniProt P45983 1-427) (enzyme)
